What all share (experiment): DAPPL (digital affinity profiling via proximity ligation, sequencing)
Details in all cases: 10 mM Tris-HCl pH 7.5, 50 mM NaCl, 1 mM DTT, 4% glycerol, room temperature, 30 min; GST-TFs on glutathione beads, 16-mer random dsDNA library, 0.1% …; high values mean tight binding; double strand, one strand shown; scale: fold enrichment (6-mer frequency, TF over GST control)

One experiment concerns the target T1, ELK1 (UniProt P19419).
T1 sequence: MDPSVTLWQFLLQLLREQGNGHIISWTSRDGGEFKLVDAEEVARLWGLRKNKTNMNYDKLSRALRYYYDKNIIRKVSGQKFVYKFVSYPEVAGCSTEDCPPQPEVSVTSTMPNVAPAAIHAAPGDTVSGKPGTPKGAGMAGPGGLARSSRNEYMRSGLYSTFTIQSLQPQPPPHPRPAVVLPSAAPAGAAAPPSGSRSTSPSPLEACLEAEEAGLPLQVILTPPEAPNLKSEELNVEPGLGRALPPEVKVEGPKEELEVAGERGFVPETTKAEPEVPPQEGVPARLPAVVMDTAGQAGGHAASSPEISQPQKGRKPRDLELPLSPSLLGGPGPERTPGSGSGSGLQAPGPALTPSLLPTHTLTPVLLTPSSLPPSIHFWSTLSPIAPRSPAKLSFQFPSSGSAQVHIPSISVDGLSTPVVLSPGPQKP

The target in a further experiment is T2, ELK3 (UniProt P41970).
T2 sequence: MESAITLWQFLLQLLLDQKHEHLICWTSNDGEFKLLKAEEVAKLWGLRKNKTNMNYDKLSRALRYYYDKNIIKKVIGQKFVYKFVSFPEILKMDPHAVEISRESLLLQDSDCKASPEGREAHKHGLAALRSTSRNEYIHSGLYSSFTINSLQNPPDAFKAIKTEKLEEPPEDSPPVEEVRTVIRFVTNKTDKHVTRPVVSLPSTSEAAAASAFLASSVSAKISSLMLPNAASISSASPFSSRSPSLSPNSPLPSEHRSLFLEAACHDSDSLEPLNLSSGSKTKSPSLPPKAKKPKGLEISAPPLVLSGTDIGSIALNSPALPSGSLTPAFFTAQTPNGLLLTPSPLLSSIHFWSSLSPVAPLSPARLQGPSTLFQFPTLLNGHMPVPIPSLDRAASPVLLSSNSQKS

Another experiment has as its target T3, SPIC (UniProt Q8N5J4).
T3 sequence: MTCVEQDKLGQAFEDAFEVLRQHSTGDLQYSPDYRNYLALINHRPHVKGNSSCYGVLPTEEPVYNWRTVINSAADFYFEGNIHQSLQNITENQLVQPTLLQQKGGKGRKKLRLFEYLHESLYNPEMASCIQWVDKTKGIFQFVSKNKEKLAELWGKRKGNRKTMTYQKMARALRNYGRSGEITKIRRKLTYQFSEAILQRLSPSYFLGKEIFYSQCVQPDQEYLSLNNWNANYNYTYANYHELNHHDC

A further experiment has as its target T4, ETS2 (UniProt P15036).
T4 sequence: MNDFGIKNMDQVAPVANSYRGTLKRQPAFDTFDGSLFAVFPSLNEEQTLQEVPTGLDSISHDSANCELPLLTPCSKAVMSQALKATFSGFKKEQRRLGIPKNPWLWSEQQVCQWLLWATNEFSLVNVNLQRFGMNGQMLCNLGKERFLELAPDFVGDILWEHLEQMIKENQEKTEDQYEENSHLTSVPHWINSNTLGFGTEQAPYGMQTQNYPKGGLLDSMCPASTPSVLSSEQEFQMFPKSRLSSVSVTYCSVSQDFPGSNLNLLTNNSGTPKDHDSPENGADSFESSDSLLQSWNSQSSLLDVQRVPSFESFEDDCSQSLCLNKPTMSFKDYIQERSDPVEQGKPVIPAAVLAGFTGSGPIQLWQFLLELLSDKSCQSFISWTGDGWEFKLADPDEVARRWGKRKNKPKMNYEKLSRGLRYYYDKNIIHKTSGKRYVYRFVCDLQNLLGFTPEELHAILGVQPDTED

The next experiment addresses T5, ETV3 (UniProt P41162-2).
T5 sequence: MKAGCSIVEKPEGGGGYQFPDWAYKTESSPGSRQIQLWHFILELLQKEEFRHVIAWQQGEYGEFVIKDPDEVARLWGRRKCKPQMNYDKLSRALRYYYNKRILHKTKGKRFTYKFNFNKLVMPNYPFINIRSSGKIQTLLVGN

This is a selection; strong and weak results do not stand in their true shares. At the low end of the ranking, values are background and their order means little.

For the sequence TCCAGG, the binding signal with ELK1 was 0.81; in the experiment with ELK3 it was 0.834; with SPIC it was 0.818; in the experiment with ETS2, 0.842; with ETV3, 0.88.
Take ACGCAG: the binding signal in the experiment with ELK1 was found to be 0.818; with ELK3, 0.741; with SPIC, 0.799; in the experiment with ETS2, 0.826; with ETV3 it was 0.739.
Regarding TCAGTG, the binding signal was 0.779 with ELK1; 0.763 in the experiment with ELK3; 0.881 with SPIC; 0.798 in the experiment with ETS2; 0.765 in the experiment with ETV3.
In the case of GGCCAG, the binding signal in the experiment with ELK1 was 0.445; with ELK3, 0.522; with SPIC, 0.418; in the experiment with ETS2 it was 0.435; in the experiment with ETV3, 0.449.
As to AGAGTG, the binding signal in the experiment with ELK1 came to 0.621; in the experiment with ELK3 it was 0.673; with SPIC it was 0.495; with ETS2, 0.598; with ETV3 it was 0.58.
As to AGTGAA, the binding signal with ELK1 was found to be 0.821; with ELK3 it was 0.87; with SPIC it was 0.806; in the experiment with ETS2, 0.857; with ETV3, 0.903.
Consider CACCGT, for which the binding signal in the experiment with ELK1 worked out at 0.714; with ELK3 it was 0.663; in the experiment with SPIC it was 0.669; with ETS2, 0.654; with ETV3 it was 0.631.
The corresponding values for CCTGTC are 0.863, 0.962, 0.888, 0.913 and 0.9.
The corresponding values for GATCGC are 0.931, 0.822, 0.715, 0.82 and 0.829.
The corresponding values for TAGCCA are 0.832, 0.919, 0.866, 0.825 and 0.809.
Regarding TGGAGT, the binding signal is 0.516 in the experiment with ELK1; 0.514 with ELK3; 0.524 with SPIC; 0.555 in the experiment with ETS2; 0.516 in the experiment with ETV3.
With GTCGGA, the binding signal with ELK1 stood at 0.153; with ELK3, 0.184; with SPIC it was 0.195; with ETS2, 0.165; with ETV3, 0.158.
The corresponding values for TGCGTG are 0.729, 0.639, 0.568, 0.614 and 0.627.
The corresponding values for GCCATG are 0.872, 0.783, 0.753, 0.729 and 0.845.
The corresponding values for GGGCAA are 0.837, 0.92, 0.705, 0.908 and 0.792.
On to CGCGGT, for which the binding signal with ELK1 turned out to be 0.886; in the experiment with ELK3, 0.787; with SPIC, 0.869; with ETS2, 0.838; with ETV3 it was 0.858.
As for GGTACC, the binding signal with ELK1 was 0.785; with ELK3, 0.737; with SPIC, 0.685; with ETS2, 0.756; with ETV3 it was 0.819.
As to CGGACT, the binding signal was 0.927 in the experiment with ELK1; 0.899 in the experiment with ELK3; 0.785 with SPIC; 0.781 with ETS2; 0.856 with ETV3.
With AGGGAG, the binding signal in the experiment with ELK1 was 0.405; with ELK3 it was 0.335; in the experiment with SPIC, 0.377; in the experiment with ETS2, 0.369; in the experiment with ETV3, 0.337.
The corresponding values for CGTGAA are 0.427, 0.467, 0.455, 0.447 and 0.468.
Consider GCATTG, for which the binding signal was 0.841 in the experiment with ELK1; 0.891 with ELK3; 0.792 in the experiment with SPIC; 0.877 with ETS2; 0.805 in the experiment with ETV3.
GAGTAG: the binding signal stood at 0.533 with ELK1; 0.477 with ELK3; 0.516 with SPIC; 0.464 in the experiment with ETS2; 0.476 with ETV3.
The corresponding values for GGCCAC are 0.959, 0.871, 0.993, 1 and 0.916.
The corresponding values for GGAGTA are 0.347, 0.346, 0.32, 0.353 and 0.35.
Take AGTGAG: the binding signal with ELK1 turned out to be 0.253; with ELK3, 0.26; with SPIC, 0.251; with ETS2, 0.253; in the experiment with ETV3 it was 0.275.
As for ACAGGC, the binding signal with ELK1 was 0.701; with ELK3, 0.666; with SPIC it was 0.721; in the experiment with ETS2 it was 0.645; with ETV3, 0.661.
The corresponding values for GAACGA are 0.776, 0.838, 0.852, 0.792 and 0.784.
On to GCGAGT, for which the binding signal stood at 0.505 with ELK1; 0.599 with ELK3; 0.54 with SPIC; 0.55 in the experiment with ETS2; 0.563 with ETV3.
The corresponding values for GCGCTG are 0.726, 0.772, 0.861, 0.98 and 0.812.
The corresponding values for CAGGCG are 0.293, 0.301, 0.29, 0.255 and 0.251.
The corresponding values for GACGAG are 0.539, 0.504, 0.487, 0.493 and 0.515.
On to TGGGCC, for which the binding signal was 0.9 with ELK1; 0.82 with ELK3; 0.951 with SPIC; 0.969 with ETS2; 0.87 with ETV3.
Turning to GGCCGC, the binding signal with ELK1 amounted to 0.839; with ELK3, 0.766; with SPIC, 0.762; with ETS2, 0.817; with ETV3, 0.818.
The corresponding values for GGTTAG are 0.768, 0.763, 0.755, 0.798 and 0.748.
Consider GGCGAC, for which the binding signal is 0.894 with ELK1; 0.813 with ELK3; 0.835 with SPIC; 0.859 in the experiment with ETS2; 0.821 with ETV3.
The corresponding values for AGCGCG are 0.807, 0.764, 0.94, 0.797 and 0.754.
The corresponding values for CACAGT are 0.688, 0.714, 0.716, 0.761 and 0.705.
The corresponding values for GCACGT are 0.746, 0.753, 0.76, 0.855 and 0.783.
GGTCAA: the binding signal with ELK1 was found to be 0.898; in the experiment with ELK3, 0.91; with SPIC, 0.812; in the experiment with ETS2, 0.949; with ETV3 it was 0.948.
With GAGCAA, the binding signal amounted to 0.732 in the experiment with ELK1; 0.637 in the experiment with ELK3; 0.722 with SPIC; 0.726 with ETS2; 0.715 with ETV3.
On to GTCAAT, for which the binding signal with ELK1 is 0.802; in the experiment with ELK3 it was 0.712; with SPIC, 0.734; in the experiment with ETS2, 0.814; with ETV3 it was 0.86.
Turning to GGGGTA, the binding signal stood at 0.711 in the experiment with ELK1; 0.753 in the experiment with ELK3; 0.729 with SPIC; 0.77 in the experiment with ETS2; 0.694 with ETV3.
The corresponding values for GTCGTG are 0.399, 0.348, 0.317, 0.397 and 0.422.
